Each number is a percent effect as filed.
How 0% and 100% were set is not recorded. Most values in the screen are low, and negative values occur.
Compounds were drawn at random from those tested, without regard to their results.

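Whole-cell growth test on Mycobacterium tuberculosis, read after 4 days in a medium based on cholesterol and the lipid DPPC; the read-out is not stated. Tested at 500 µM. Higher reads as more growth inhibition (inferred: compounds with an IC50 in retests scored well above the rest). Size under these conditions: about 18,000 compounds, about 900 of them at 50% or above in at least one test.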

| compound | percent effect |
|---|---|
| `COC(=O)c1cncc(C(=O)NCCc2ccsc2)c1` | 24.32 |
| `CNC1CCCN(Cc2noc(C)n2)C1` (stereo unspecified) | 2.415 |
| `CC(C)(C)OC(=O)NCC1CCCNC1` (stereo unspecified) | 6.404 |
| `CC(=O)c1cc(CN2CC[C@](C)(O)[C@@H](O)C2)n(C)c1` | 5.675 |
| `COc1cccc(CO)c1C` | 4.865 |
| `CCCNCc1ccc2c(c1)n(C)c(=O)n2C` | -3.017 |
| `O=C(c1ccc(O)nc1)N1CCCCCCC1` | -0.6346 |
| `OC(CN1CCn2ccnc2C1)c1cccc(F)c1` (stereo unspecified) | 9.017 |
| `COc1cnc(C(=O)NCc2ccccc2F)cc1O` | -1.298 |
| `Cc1nonc1NC(=O)CSc1c[nH]nn1` | 16.72 |
| `O=C(NCC1(CO)CCC1)Nc1ccc2cn[nH]c2c1` | 22.86 |
| `Cc1ccc(S(=O)(=O)NCc2ncc[nH]2)cc1` | 0.5177 |
| `CCn1ccc(NC(=O)C2CCCC2)n1` | 18.88 |
| `CC1CCCN(C(=O)c2csc(S(N)(=O)=O)c2)C1` (stereo unspecified) | -9.873 |
| `CC(NC(=O)CNc1ccccc1F)c1ccco1` (stereo unspecified) | 64.8 |
| `CNC(=O)C(C)S(=O)(=O)Cc1ccc(F)cc1Cl` (stereo unspecified) | -6.425 |
| `COc1ccccc1S(=O)(=O)N1CCCCC1CN` (stereo unspecified) | 17.92 |
| `NCC1(CO)CC(c2ccccc2)C1` (stereo unspecified) | 13.4 |
| `CN(C)C(=O)NCCNc1nc(-c2ccccc2)ns1` | -12.06 |
| `CNC(=O)NC(=O)CSc1ccccn1` | 48.43 |
| `CCC(C)(C)NC(=O)Cn1ccc(C(F)(F)F)n1` | 25.1 |
| `O=C(NCCN1CCNCC1)C1CCC1` | -10.73 |
| `C[C@@H]1CN(C(=O)CCc2cnccn2)C[C@]1(C)O` | 1.871 |
| `CNC(CCO)Cc1ccccc1` (stereo unspecified) | 2.998 |
| `CCC(CNC(=O)c1ccoc1)N1CCCC1` (stereo unspecified) | 18.45 |
| `CCCNC(=O)CN1CCN(c2ccccc2O)CC1` | -17.55 |
| `CCOc1ccc(C(=O)N(C)C(C)c2ccncn2)o1` (stereo unspecified) | -4.094 |
| `O=C(CN1CCC(CO)CC1)NCCc1cccs1` | 48.29 |
| `CC(=O)c1ccc(NC(N)=O)cc1Cl` | 37.97 |
| `CC(C)(C)OC(=O)N[C@@H]1CCCNC1` | -21.83 |
| `Cc1cc(C(=O)N2CCCC2C(=O)NC2CC2)no1` (stereo unspecified) | -9.561 |
| `CSc1ncc(C(=O)NCC2CCOC2)cn1` (stereo unspecified) | 4.897 |
| `Nc1ccnc(C2CCNCC2)n1` | -1.248 |
| `N[C@H]1CC[C@@H](C(F)(F)F)C1` | 0.03113 |
| `CN(C)c1ncccc1CNC(=O)COCC1CC1` | 14.4 |
| `CN(C)c1cc(CNc2ncnc3[nH]ncc23)ccn1` | 1.801 |
| `CCC(O)CNc1cc(C2CCNCC2)nc(C)n1` (stereo unspecified) | -6.695 |
| `COc1ccc(OC)c(NC(=O)N2CC(C)(OC)C2)c1` | 16.86 |
| `CS(=O)(=O)CCS(N)(=O)=O` | 5.81 |
| `c1cc(-c2ncco2)ccn1` | -6.293 |
| `NC(=O)C1CCN(CC(O)COc2ccccc2)CC1` (stereo unspecified) | 8.657 |
| `Cc1ccccc1CC(=O)NCCC1CCNC1` (stereo unspecified) | -14.37 |
| `CCC(C)NC(=O)CNC(=O)Cn1cncn1` (stereo unspecified) | -8.698 |
| `O=C(OCC(=O)N1CCNC1=O)c1ccc(O)cc1` | 13.37 |
| `Cc1c(C(=O)N(CC2CCOC2)C2CC2)cnn1C` (stereo unspecified) | -7.339 |
| `Cc1csc(CNC(=O)NC(C)Cn2cccn2)n1` (stereo unspecified) | -3.605 |
| `O=C(Nc1nc2ccccc2[nH]1)C1CC1` | 0.3133 |
| `CCC(N)CN(C)CCCN(C)C` (stereo unspecified) | -2.02 |
| `N#CCOC(=O)c1ccc2c(c1)OCCCO2` | 51.62 |
| `CCc1cc(=O)[nH]c(C(C)(N)CC)n1` (stereo unspecified) | -7.141 |
| `O=S(=O)(NCCO)c1ccc2ccccc2c1` | 7.78 |
| `CC(Sc1nc[nH]n1)C(=O)NCc1ccccc1` (stereo unspecified) | 2.027 |
| `O=C(c1ccc(CN2CCSCC2)cc1)N1CCCC1` | 11.3 |
| `NC(=O)CCSc1nc2ncccn2n1` | -2.159 |
| `CN1CCCN(Cc2cc(F)cc(F)c2)CC1=O` | 32.65 |
| `CC(C)(C)OC(=O)NCCC(=O)NC1=NCCS1` | 18.73 |
| `Cc1ccnc(NC(=O)CSc2nnc(N)s2)n1` | -3.419 |
| `NC(=O)C1CCCCN1CC(=O)Nc1cccc(F)c1` (stereo unspecified) | -17.23 |
| `CCOc1ccc2cc(C(=O)N3CCSCC3)[nH]c2c1` | -0.7416 |
| `CN(CCc1ccccn1)C(=O)C1CCCNCC1` (stereo unspecified) | -5.363 |
| `Cc1ccnc(CC2CCCN2)c1` (stereo unspecified) | 9.159 |
| `COC(=O)c1cc(F)ccc1CN(C)S(C)(=O)=O` | 20.33 |
| `CNS(=O)(=O)N1CCc2ccccc2C1` | 9.897 |
| `CC(C)S(=O)(=O)CCCn1nnc(-c2ccsc2)n1` | 62.4 |
| `CN(C(=O)CCn1cccn1)C1CCS(=O)(=O)C1` (stereo unspecified) | -9.917 |
| `CCN(Cc1ccn(CC)n1)[C@H]1COC[C@@H]1O` | 13.98 |
| `NCCSCc1ccccc1F` | 43.39 |
| `CCCN1CCC(NC(=O)c2ccncc2)CC1` | -5.132 |
| `COC(=O)c1sc(N)c(C#N)c1C` | 23.42 |
| `CCN1CCN(C(=O)Nc2cc(C)ccc2OC)CC1` | 26.38 |
| `CC(=O)N1CCN(C(=O)C2CCNCC2)CC1` | 15.67 |
| `CC(CN)c1nc(-c2ccccc2)no1` (stereo unspecified) | 60.85 |
| `CCC(NC(=O)c1nc(C)c[nH]1)c1cccc(C)n1` (stereo unspecified) | 4.149 |
| `COC(=O)c1ccc(CN(C)CCN2CCCC2=O)o1` | 0.6549 |
| `CNC(=O)c1sccc1N` | 8.624 |
| `O=C(Nc1nccs1)C1CCCN(C(=O)NC2CC2)C1` (stereo unspecified) | 9.576 |
| `CN(CC(N)=O)CC(=O)NCc1cc(Br)cs1` | 30.81 |
| `Cc1ccc(C(=O)NCCSc2nncn2C)s1` | -4.461 |
| `O=C(NC1CCC(O)CC1)OCC(F)(F)F` (stereo unspecified) | 14.84 |
| `CCC(N)(CC)CNS(=O)(=O)c1cccc(F)c1` | -4.101 |
| `CCC(NC(=O)C1CC1)(C(N)=O)C(C)C` (stereo unspecified) | 3.601 |
| `CC(CN[C@@H](C)CO)c1ccccc1` (stereo partly specified) | 4.932 |
| `COc1ccc2c(c1)C(N)CCN2` (stereo unspecified) | -12.64 |
| `CCOC(=O)N1CCC(C(N)=O)CC1` | 18.77 |
| `CCN(C)C(=O)CCN(Cc1cnn(C)c1)C(C)C` | -2.343 |
| `NCCCOCC1CCOC1` (stereo unspecified) | -16.27 |

For reference, 7 entries once more:

compound	percent effect
CN(CC(N)=O)CC(=O)NCc1cc(Br)cs1	30.81
O=C(NCCN1CCNCC1)C1CCC1	-10.73
CCC(C)NC(=O)CNC(=O)Cn1cncn1 (stereo unspecified)	-8.698
COc1ccccc1S(=O)(=O)N1CCCCC1CN (stereo unspecified)	17.92
COC(=O)c1ccc(CN(C)CCN2CCCC2=O)o1	0.6549
CCC(N)CN(C)CCCN(C)C (stereo unspecified)	-2.02
O=C(Nc1nccs1)C1CCCN(C(=O)NC2CC2)C1 (stereo unspecified)	9.576

Data taken from ChEMBL document CHEMBL3988442, “University of Dundee, Small-Polar-MMV Screening Library” (2021).